From US20040132160A1

B1: MURF-1 (Muscle RING Finger 1), native protein without epitope tag (protein)
chain: MNFTVGFKPLLGDAHNMDNLEKQLICPICLEMFSKPVVILPCQHNLCRKCANDVFQASNPLWQSRGSTTVSSGGRFRCPSCRHEVVLDRHGVYGLQRNLLVENIIDIYKQESSRPLHAKAEQHLMCEEHEDEKINIYCLSCEVPTCSLCKVFGAHKDCEVAPLPTIYKRQKSELSDGIAMLVAGNDRVQAVITQMEEVCQTIEDNSRRQKQLLNQRFETLCAVLEERKGELLQALAREQEEKLQRVRGLIRQYGDHLEGSSKLVESAIQSMEEPQMALYLQQAKELINKVGAMSKVELAGRPEPGYESMEQFSVSVEHVAEMLRTIDFQPGAAGDEEDDDMALDGEEGNAGLEEERLDVPEGSGLH
B2: full-length MURF-1 with C-terminal myc tag (protein, not shown: small tags and cut ends)
chain: B1 chain

Tests used:
[1] = biological target: vimentin (intermediate filaments); assay: antibodies to MURFs and to intermediate filaments such as desmin, vimentin and cytokeratin
[2] = biological target: cytokeratin (intermediate filaments); assay: as above
[3] = biological target: desmin (intermediate filaments); assay: as above
[4] = biological target: actin (filaments of cultured cells); assay: coimmunofluorescence in transfected Hela cells

Binder	binding [1]	binding [2]	binding [3]	binding [4]
B1	binds	binds	binds	–
B2	–	–	–	no binding

No constants are given. Whether binding was seen depends on the method and setting. For some of these results: A result given as binding can be weak or reduced; the word gives no strength. Tags and fused reporters may be left off the sequences shown.
